Measurements as given in PMC8484674.
These are yes or no findings as the source states them, for the method shown. In cells and extracts the contact can be indirect. These calls come from enrichment with a bait or labelling near it, and not all partners need be listed.

Sequences of proteins named here, by UniProt entry; tags and fusion partners are left off.
UniProt Q14145: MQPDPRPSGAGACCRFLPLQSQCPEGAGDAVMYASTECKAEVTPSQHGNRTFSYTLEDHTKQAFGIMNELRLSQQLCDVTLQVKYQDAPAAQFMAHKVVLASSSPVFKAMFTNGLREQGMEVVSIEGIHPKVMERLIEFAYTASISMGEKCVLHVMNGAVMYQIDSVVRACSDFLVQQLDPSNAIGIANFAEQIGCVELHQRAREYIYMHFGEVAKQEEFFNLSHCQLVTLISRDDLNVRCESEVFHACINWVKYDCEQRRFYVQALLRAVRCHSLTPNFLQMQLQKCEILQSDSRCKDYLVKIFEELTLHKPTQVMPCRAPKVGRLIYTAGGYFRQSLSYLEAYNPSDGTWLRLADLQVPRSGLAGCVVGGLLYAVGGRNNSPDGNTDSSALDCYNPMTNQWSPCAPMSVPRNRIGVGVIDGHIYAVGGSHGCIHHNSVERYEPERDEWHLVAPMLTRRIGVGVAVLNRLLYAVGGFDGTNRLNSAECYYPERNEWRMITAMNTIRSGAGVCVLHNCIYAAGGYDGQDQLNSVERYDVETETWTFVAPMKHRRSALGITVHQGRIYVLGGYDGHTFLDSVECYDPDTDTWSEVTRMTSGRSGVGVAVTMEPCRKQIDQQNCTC

B1: Wdr1 (protein, UniProt O75083 1-606)
chain: MPYEIKKVFASLPQVERGVSKIIGGDPKGNNFLYTNGKCVILRNIDNPALADIYTEHAHQVVVAKYAPSGFYIASGDVSGKLRIWDTTQKEHLLKYEYQPFAGKIKDIAWTEDSKRIAVVGEGREKFGAVFLWDSGSSVGEITGHNKVINSVDIKQSRPYRLATGSDDNCAAFFEGPPFKFKFTIGDHSRFVNCVRFSPDGNRFATASADGQIYIYDGKTGEKVCALGGSKAHDGGIYAISWSPDSTHLLSASGDKTSKIWDVSVNSVVSTFPMGSTVLDQQLGCLWQKDHLLSVSLSGYINYLDRNNPSKPLHVIKGHSKSIQCLTVHKNGGKSYIYSGSHDGHINYWDSETGENDSFAGKGHTNQVSRMTVDESGQLISCSMDDTVRYTSLMLRDYSGQGVVKLDVQPKCVAVGPGGYAVVVCIGQIVLLKDQRKCFSIDNPGYEPEVVAVHPGGDTVAIGGVDGNVRLYSILGTTLKDEGKLLEAKGPVTDVAYSHDGAFLAVCDASKVVTVFSVADGYSENNVFYGHHAKIVCLAWSPDNEHFASGGMDMMVYVWTLSDPETRVKIQDAHRLHHVSSLAWLDEHTLVTTSHDASVKEWTITY
B2: Zbed3 (protein, UniProt Q96IU2 1-234)
chain: MRSGEPACTMDQARGLDDAAARGGQCPGLGPAPTPTPPGRLGAPYSEAWGYFHLAPGRPGHPSGHWATCRLCGEQVGRGPGFHAGTSALWRHLRSAHRRELESSGAGSSPPAAPCPPPPGPAAAPEGDWARLLEQMGALAVRGSRRERELERRELAVEQGERALERRRRALQEEERAAAQARRELQAEREALQARLRDVSRREGALGWAPAAPPPLKDDPEGDRDGCVITKVLL
B3: Slc4a1ap (protein, UniProt Q9BWU0 1-742)
chain: MADILSQSETLASQDLSGDFKKPALPVSPAARSKAPASSSSNPEEVQKEGPTALQDSNSGEPDIPPPQPDCGDFRSLQEEQSRPPTAVSSPGGPARAPPYQEPPWGGPATAPYSLETLKGGTILGTRSLKGTSYCLFGRLSGCDVCLEHPSVSRYHAVLQHRASGPDGECDSNGPGFYLYDLGSTHGTFLNKTRIPPRTYCRVHVGHVVRFGGSTRLFILQGPEEDREAESELTVTQLKELRKQQQILLEKKMLGEDSDEEEEMDTSERKINAGSQDDEMGCTWGMGEDAVEDDAEENPIVLEFQQEREAFYIKDPKKALQGFFDREGEELEYEFDEQGHSTWLCRVRLPVDDSTGKQLVAEAIHSGKKKEAMIQCSLEACRILDTLGLLRQEAVSRKRKAKNWEDEDFYDSDDDTFLDRTGLIEKKRLNRMKKAGKIDEKPETFESLVAKLNDAERELSEISERLKASSQVLSESPSQDSLDAFMSEMKSGSTLDGVSRKKLHLRTFELRKEQQRLKGLIKIVKPAEIPELKKTETQTTGAENKAKKLTLPLFGAMKGGSKFKLKTGTVGKLPPKRPELPPTLMRMKDEPEVEEEEEEEEEEEKEKEEHEKKKLEDGSLSRPQPEIEPEAAVQEMRPPTDLTHFKETQTHENMSQLSEEEQNKDYQDCSKTTSLCAGPSASKNEYEKSRGELKKKKTPGPGKLPPTLSSKYPEDDPDYCVWVPPEGQSGDGRTHLNDKYGY

target: His6-Halo-TEV-Keap1 (UniProt Q14145); experiment: affinity purification with mass spectrometry; SILAC HEK293T line expressing His6-Halo-TEV-Keap1, T-REX (Ht-preHNE(alkyne) 20 uM, 365 nm light) against control; pooled lysate (50 mM HEPES pH 7.6, 150 mM NaCl, 1% NP-40, 5 mM imidazole) on TALON resin 1 h at 4 °C, eluted with 200 mM imidazole …

| binding | Binder |
| --- | --- |
| binds | B1 |
| binds | B2 |
| binds | B3 |
